According to the supplement of paper PMC3334620:
In all, about 33,000 sequences were measured (“E-score (-0.5 to 0.5)”: median about -0.0059, highest 2% from about 0.26 on). The list shows a part of the results.

target: T1, Cin5 (UniProt P40917); experiment: PBM E-score (8-mer binding enrichment) (E-score (-0.5 to 0.5)); higher = stronger / more preferred TF binding; conditions: protein concentration: 100 nM; construct: GST-full length
T1 sequence: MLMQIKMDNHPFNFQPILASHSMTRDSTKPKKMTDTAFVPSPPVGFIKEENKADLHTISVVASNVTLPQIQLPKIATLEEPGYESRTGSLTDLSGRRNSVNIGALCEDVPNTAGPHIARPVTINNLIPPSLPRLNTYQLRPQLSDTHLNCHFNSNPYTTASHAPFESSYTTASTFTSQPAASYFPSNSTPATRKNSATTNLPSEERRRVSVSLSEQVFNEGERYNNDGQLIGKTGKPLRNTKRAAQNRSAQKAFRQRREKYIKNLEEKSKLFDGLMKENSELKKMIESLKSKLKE
Procedure, shortened: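 Yeast transcription factors, full-length or as DNA-binding domains, were expressed with a GST tag using PURExpress in vitro transcription/translation. At about 100-200 nM they were applied to universal all-10-mer Agilent arrays, double-stranded by primer extension on fresh or once-stripped slides. Fluorescent anti-GST detected bound protein, and masliner normalised the scans. E-scores for ungapped eight-base words, pooled with reverse complements, came from the Universal PBM Analysis Suite.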

Row | Sequence | PBM E-score
1 | ACTTACTC | 0.0331
2 | CATTAGAA | 0.104
3 | CATAAGTA | 0.0709
4 | ACACACCT | 0.132
5 | CGACCGCG | 0.0264
6 | CGCCTGAG | -0.0649
7 | GAAATAAA | 0.172
8 | AATGGTAA | 0.233
9 | CAAACTGA | 0.0485
10 | CCACCCCA | 0.0803
11 | ATATTACG | 0.376
12 | CGGACGCA | -0.114
13 | ACGATGAG | 0.112
14 | GTGTGCAA | -0.0627
15 | GAGACATA | 0.22
16 | CGATCACA | 0.171
17 | GCTGTTGA | 0.0963
18 | CCCTAATA | -0.00922
19 | GCATTCAA | 0.0678
20 | ACTCCCAA | 0.0288
21 | CTCGAAAG | -0.0648
22 | CGTTCTAG | -0.0174
23 | CTAGACAG | 0.0214
24 | ACTAGTAC | -0.00793
25 | CAATGACA | 0.115

Row | Sequence | PBM E-score
26 | CTACAGCA | -0.12
27 | GAGACCAA | 0.118
28 | AATTAAGA | 0.0155
29 | GATCTTCA | 0.0772
30 | ACTAAAAA | 0.0836
31 | GCCTTTTA | -0.161
32 | CAGCCTTC | -0.128
33 | GTACTGGA | 0.116
34 | ACGTTGGA | -0.0955
35 | AGTCCCGC | -0.143
36 | CCCTAACA | 0.115
37 | GAACGTAA | 0.297
38 | GAGTCTGC | -0.287
39 | AAGCTGTC | -0.0169
40 | ACCTGCGC | 0.0121
41 | AGGGACGC | -0.208
42 | AGGCATCG | -0.244
43 | AACGAGAT | 0.118
44 | AGGCCCTC | -0.204
45 | CCAAGTAC | -0.00446
46 | AGAACGTC | -0.057
47 | GATTCTCA | 0.126
48 | AAAACACT | 0.0413
49 | CTTCACTC | 0.0913
50 | GGCTTACC | 0.169

Row | Sequence | PBM E-score
51 | CGTTAAGC | -0.0568
52 | GAGGGCCA | -0.21
53 | AAAACGCC | -0.0523
54 | CTGTTGCA | 0.136
55 | AGACTGGC | -0.251
56 | GCTATCTA | -0.102
57 | ACCTCTTC | 0.0737
58 | GACCTCAC | -0.0133
59 | CATCGTTA | -0.0312
60 | TCCCAGCA | 0.00752
61 | ATTCATTA | 0.122
62 | CATTGTGG | -0.00112
63 | CGGTATAA | 0.173
64 | CGGGTTTC | 0.11
65 | AAGCCGTG | -0.0435
66 | AACAGATT | 0.0388
67 | ATATCCTG | -0.0502
68 | CGGTTAAC | -0.0698
69 | AGGCCTAC | 0.0625
70 | TAGCCGCA | -0.173
71 | GTCATGGA | -0.0103
72 | ACAAATGC | 0.133
73 | CGGAAACC | -0.0102
74 | AGAAAACA | 0.0208
75 | AAAGGACA | 0.0242

Row | Sequence | PBM E-score
76 | AACGGGGT | -0.179
77 | GTAAAGAC | 0.145
78 | ATTAATTC | 0.238
79 | AGGGATCA | -0.00959
80 | AGCAACCC | -0.0945
81 | CACTGAGC | -0.0573
82 | GTGAGAAC | -0.076
83 | CCCTCAAA | -0.0604
84 | GCCCTGAC | -0.182
85 | TACACTGA | 0.0659
86 | GAAGCGAA | -0.0046
87 | ACAGACTG | -0.0597
88 | ATGATTAA | 0.256
89 | TCACACGA | 0.0679
90 | AGTATCGG | -0.0518
91 | ACATTCGT | 0.1
92 | CAATTAGG | 0.0254
93 | CTCCAATA | 0.0927
94 | ACAAAGGA | 0.148
95 | ATCGGCCG | -0.179
96 | CACCTATA | 0.0663
97 | AGACGTCG | -0.128
98 | GACGGTAA | -0.0417
99 | GGCCTGAA | -0.222
100 | ACTTGTCG | -0.00214

Row | Sequence | PBM E-score
101 | CAATCAAC | 0.203
102 | GGAAACCA | -0.0564
103 | AAATGTAA | 0.14
104 | AGTTTCTC | -0.0286
105 | GAAGGACA | -0.0373
106 | ACAGCGTA | -0.0981
107 | ACTCTACG | -0.144
108 | AGTGACAG | -0.0297
109 | GATCAGAA | -0.0634
110 | ATACCCCG | 0.0236
111 | CATTCAGC | 0.0234
112 | AAGGGCAA | -0.0726
113 | CATGTCCA | 0.0503
114 | CTACCCAA | -0.00884
115 | GTCGCGCA | -0.0445
116 | CTACAAAG | -0.0388
117 | CAGCTATG | -0.161
118 | CATGGACA | -0.178
119 | AACAGGCG | -0.132
120 | GCGTGGCA | -0.204
121 | ATAATGTA | 0.251
122 | CAGTGTTA | 0.241
123 | ACCCGACC | -0.123
124 | GATCGACC | -0.113
125 | TAGGGCAA | -0.0426

Row | Sequence | PBM E-score
126 | CAGTCATA | 0.037
127 | CCGCTTGA | -0.108
128 | GCCCTCCC | -0.317
129 | AGCGATAT | 0.184
130 | CAAAATAC | 0.0689
131 | CCAATTGA | 0.143
132 | GTTATTCA | 0.143
133 | ATGCACTA | -0.0624
134 | GACCCAAA | 0.04
135 | CGCCACCC | -0.091
136 | GGCAAGAC | -0.0509
137 | TAAGTGAA | 0.179
138 | ATCACCTG | 0.148
139 | ACTCTGCA | 0.149
140 | GCGAGCCA | -0.0133
141 | CAGATCGG | -0.0356
142 | CGTACAGC | -0.104
143 | ATTATTGG | 0.151
144 | CCTAGATC | -0.0288
145 | GCTAAAGC | -0.125
146 | ATGGACAT | 0.00653
147 | CCTCTTTA | -0.155
148 | GTAGTGTA | -0.01
149 | CCCGTAAG | 0.0415
150 | ACCATTTC | 0.0809

Some of the entries so far, as comma-separated lines:
Row,Sequence,PBM E-score
16,CGATCACA,0.171
17,GCTGTTGA,0.0963
18,CCCTAATA,-0.00922

An excerpt of these results, as a markdown table:

| Row | Sequence | PBM E-score |
| --- | --- | --- |
| 53 | AAAACGCC | -0.0523 |
| 54 | CTGTTGCA | 0.136 |

Later entries:

Row | Sequence | PBM E-score
151 | AACCCATC | 0.0393
152 | CAGAAATG | 0.0485
153 | GGGTGAGA | -0.215
154 | CGGTTCAG | -0.33
155 | CTCCCGAC | -0.204
156 | AAGGCTTC | -0.101
157 | GCGCAGAC | -0.178
158 | CCAGAAGA | -0.107
159 | CCTTTCAA | -0.0565
160 | ACGCGATG | 0.0661
161 | CCTACAAG | -0.23
162 | GAGAGATA | 0.0117
163 | ATGATAGA | -0.0131
164 | CGACTCTA | -0.0916
165 | ACCAAACA | 0.156
166 | CCCTGACC | -0.0906
167 | CACCACAG | 0.00324
168 | ACAGCCCC | -0.145
169 | AGGATCAC | 0.146
170 | CCCTCAAG | -0.181
171 | CTGACGTA | 0.278
172 | CTCGGTGA | -0.132

Looked up one by one from above (7):
Row | Sequence | PBM E-score
152 | CAGAAATG | 0.0485
153 | GGGTGAGA | -0.215
157 | GCGCAGAC | -0.178
154 | CGGTTCAG | -0.33
168 | ACAGCCCC | -0.145
158 | CCAGAAGA | -0.107
172 | CTCGGTGA | -0.132
